Measurements as given in PubChem BioAssay AID2685 (National Center for Advancing Translational Sciences (NCATS), 2010).
Screen size: about 320,000 compounds; about 2,100 (0.66%) were called active. The inconclusive results got no clear call from the source; some entries with a clear call stand among them for comparison. Calls follow the shape of the dose curve; as a rule, active = well fitted inhibition curve with a large enough effect in the signal ratio, with a control signal flat (not every such curve was filed as active); inconclusive = small, poorly fitted or top-dose-only effect, or effect the other way, or a change in a side signal; inactive = flat fitted curve, though single readings scatter; the % refers to the signal ratio. A potency beside an inconclusive call is a rough fit, not a confirmed value.

Experiment: qHTS Assay for Lipid Storage Modulators in Drosophila S3 Cells
Settings: BODIPY lipid droplet fluorescence, 18-24 h, cells fed with added oleic acid; lipid storage change, negative = inhibition: at 46.1 µM (top of the series) unless noted
Method in brief: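 Drosophila S3 cells loaded with oleic acid (400 uM, as added) and compounds at several concentrations; lipid droplets imaged by 488-nm laser-scanning cytometry, 500–530 nm intensity and object ratio to cell channel. Percent activity normalized to 20 uM Triacsin C.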
% is scaled to controls: 0 for no effect and ±100 for the full control effect; potency is read from the fitted curve at half-maximal effect.

Row | Compound | Potency | lipid storage change, negative = inhibition | outcome
1 | Cc1cccc(C)c1NC(=S)N1CCCCCC1 | inconclusive: 5.8 µM [activator, single point] |  | 
2 | O=C(Cc1ccsc1)Nc1ccc(Cl)cc1Cl | inconclusive: 18.4 µM [activator, partial curve, poor fit] |  | 
3 | Cc1c(C(=O)NCCS(=O)(=O)N2CCN(c3ccccc3F)CC2)cccc1[N+](=O)[O-] |  | inconclusive: -48.7% | 
4 | CCc1noc(N)c1C(=O)Nc1ccc(F)c(Cl)c1 | inconclusive: 23.1 µM [falling, single point] |  | 
5 | CC(OC(=O)c1cccc(-n2cnnn2)c1)C(=O)NCc1ccccc1 (configuration not stated) |  | inconclusive: 8.61% | 
6 | Cc1ccc(C2NC(C(=O)O)CS2)cc1 (configuration not stated) |  | inconclusive: -26.4% | 
7 | COc1cc(NC(=O)c2cc(C3CC3)on2)c(OC)cc1Cl |  | inconclusive: -53.6% | 
8 | CCOc1ccc(C(=O)Nc2c3c(nn2-c2ccccc2)CS(=O)(=O)C3)cc1 |  | inconclusive: 23.7% | 
9 | O=C(NCc1ccc2c(c1)OCO2)c1cccs1 | inconclusive: 7.31 µM [activator, partial curve] |  | 
10 | COC(=O)NC1(C(F)(F)F)C(=O)Nc2c1c(=O)n(C)c(=O)n2C (configuration not stated) |  | inconclusive: -37% | 
11 | Cc1ccc(NC(=O)CSc2ncccn2)cc1S(=O)(=O)N1CCCCC1 |  | inconclusive | 
12 | Clc1ccccc1OCCN1CCC(Cc2ccccc2)CC1 |  | inconclusive: 27.3% | 
13 | C=CCn1c(SCc2ccccc2C#N)nnc1-c1cc(Br)ccc1O | inconclusive: 0.82 µM [cytotoxic, single point] |  | 
14 | CCOC(=O)c1cnc(N2CCN(c3ccccc3)CC2)[nH]c1=O |  | inconclusive: 416% | 
15 | COc1ccccc1C1N(c2ccc(F)cc2)C(=O)C2CCCN21 (configuration not stated) |  | inconclusive: 75.6% | 
16 | Cc1cc(NC(=O)C2CCCN(S(=O)(=O)c3cnc[nH]3)C2)ccc1Br (configuration not stated) |  | inconclusive: 2.23% | 
17 | CN(CC(=O)NCc1ccccc1Cl)S(=O)(=O)c1ccc2c(c1)n(C)c(=O)c(=O)n2C | inconclusive: 4.61 µM [falling, single point] |  | 
18 | C=CCOc1ccc(CNn2cn[nH]c2=S)cc1OC |  | inconclusive: -28.1% | 
19 | CCCC(=O)Nc1cc2c(cc1C(C)=O)OCCO2 |  | inconclusive: 10.9% | 
20 | O=C(NCCOC(=O)C1COc2ccccc2O1)C1COc2ccccc2O1 (configuration not stated) |  | inactive: -28.4% | 
21 | CNS(=O)(=O)c1cccc(C(=O)OCc2cc(=O)oc3c(C)c(O)ccc23)c1 |  | inconclusive: -100% | 
22 | CN(CC(=O)O)S(=O)(=O)c1cc(Cl)ccc1Cl | inconclusive: 29.1 µM [cytotoxic, single point] |  | 
23 | CC(NC(=S)Nc1ccc(S(=O)(=O)N2CCOCC2)cc1)C1CC2CCC1C2 (configuration not stated) | inconclusive: 23.1 µM [falling, single point] |  | 
24 | c1cncc(-c2ccc3ncnc(NCc4ccc5c(c4)OCO5)c3c2)c1 | inconclusive: 13 µM [activator, partial curve, poor fit] |  | 
25 | Cc1ccccc1NC(=O)N1C2CCCC1CC(NC(=O)C(C)(C)C)C2 (configuration not stated) | inconclusive: 0.0052 µM [activator, full curve, poor fit] |  | 
26 | Cc1nc2cc(NC(=O)Nc3cccc4ccccc34)ccc2n1C |  | inactive: -7.94% | 

Quoted at random: 4 entries already listed, in no set order.
Row | Compound | Potency | lipid storage change, negative = inhibition | outcome
13 | C=CCn1c(SCc2ccccc2C#N)nnc1-c1cc(Br)ccc1O | inconclusive: 0.82 µM [cytotoxic, single point] |  | 
4 | CCc1noc(N)c1C(=O)Nc1ccc(F)c(Cl)c1 | inconclusive: 23.1 µM [falling, single point] |  | 
9 | O=C(NCc1ccc2c(c1)OCO2)c1cccs1 | inconclusive: 7.31 µM [activator, partial curve] |  | 
24 | c1cncc(-c2ccc3ncnc(NCc4ccc5c(c4)OCO5)c3c2)c1 | inconclusive: 13 µM [activator, partial curve, poor fit] |  | 

(next part)

Row | Compound | Potency | lipid storage change, negative = inhibition | outcome
27 | NC(=S)Nc1ccc(F)c(F)c1F |  | inconclusive: -14.5% | 
28 | O=[N+]([O-])c1ccccc1CN1CCN(Cc2c[nH]c3ccccc23)CC1 |  | inconclusive: 43.7% | 
29 | COc1ccc(NC(=S)N(CCc2c(C)[nH]c3ccccc23)Cc2ccco2)cc1 | inconclusive: 0.82 µM [activator, full curve] |  | 
30 | Cn1cnnc1SCC(=O)c1c[nH]c2ccccc12 |  | inconclusive: 19.9% | 
31 | COc1ccccc1CNS(=O)(=O)c1c(C(=O)N2CCCCC2)c(C)n(C)c1C |  | inconclusive: -29.5% | 
32 | CSc1nsc(SCC(=O)N2CCc3ccccc32)n1 |  |  | inactive [at 46.1 µM]
33 | N/C(=N\OC(=O)CCC1CCCC1)c1ccccc1 |  | inconclusive: 23.5% [at 9.22 µM] | 
34 | COc1cc(C(=O)N2CCN(c3cccc(C)c3C)CC2)ccc1OCC(=O)N1CCOCC1 |  | inconclusive: 18.3% | 
35 | CNC[C@H](CC1CCCCC1)NC[C@H](Cc1ccccc1)NCCC12CC3CC(CC(C3)C1)C2 | inconclusive: 9.2 µM [falling, partial curve] |  | 
36 | COc1ccc2[nH]c(=S)[nH]c2c1 |  | inconclusive: 18% | 
37 | COc1ccc(NC(=O)C2CCN(C(=O)[C@@H]3Cc4ccccc4CN3C(=O)OC(C)(C)C)CC2)cc1 |  | inconclusive: 33% | 
38 | CCOc1ccc(CCNC(=O)C2CCN(c3nnc(-n4cccc4)s3)CC2)cc1 |  | inconclusive: 11.1% | 
39 | O=C(Cc1ccc(F)cc1)Nc1c(C(=O)N2CCN(c3ncccn3)CC2)oc2ccccc12 |  |  | inactive [at 46.1 µM]
40 | CCOc1cccc(-c2c(C(=O)N/N=C/c3ccsc3)nnn2-c2nonc2N)c1 | inconclusive: 29.1 µM [falling, single point] |  | 
41 | O=C(N/N=C/c1ccc(N2CCOCC2)cc1)c1ccccc1OCCOc1ccccc1 |  | inconclusive: -22.8% | 
42 | CC(=O)N1c2c(cc(Br)cc2S(=O)(=O)N2CCCCC2)CC1C (configuration not stated) |  | inconclusive: -12.2% | 
43 | COCC1CCCN(C(=O)c2ccc3nc(Cc4cccc(Cl)c4)oc3c2)C1 (configuration not stated) |  | inconclusive: -58.5% | 
44 | CC(=O)N1c2ccc(S(=O)(=O)N3CCC(C(=O)Nc4cc(C)cc(C)c4)CC3)cc2CC1C (configuration not stated) |  | inconclusive: 30.8% | 
45 | CCOC(=O)c1cc(OC(=O)c2cccs2)n(-c2ccccc2)n1 | inconclusive: 29.1 µM [activator, single point] |  | 
46 | Cc1cccc(C(=O)CC(=O)c2cc(Cl)ccc2O)c1 | inconclusive: 6.51 µM [rising, single point] |  | 
47 | CCOC(=O)c1oc2nc(C(C)C)c3c(c2c1N)CC(C)(C)OC3 |  | inconclusive: 9.22% | 
48 | O=C(CSc1nncs1)Nc1ccc(S(=O)(=O)N2CCCC2)cc1 |  | inconclusive: 0.873% | 
49 | COc1ccc(/C=C/C(=O)N(Cc2cccs2)C2CCS(=O)(=O)C2)cc1 (configuration not stated) |  | inconclusive: -23.3% | 
50 | CC1CC1C(=O)OCC(=O)Nc1ccc(N=Nc2ccccc2)cc1 (configuration not stated) | inconclusive: 29.1 µM [falling, single point] |  | 
51 | C#CCn1c(=NC(=O)c2cc(-c3cccs3)nc3ccccc23)sc2cc(S(N)(=O)=O)ccc21 | inconclusive: 0.411 µM [activator, full curve, poor fit] |  | 
52 | Cn1c(=O)c2c(nc(N/N=C/c3ccc(OC(=O)c4ccco4)cc3)n2Cc2ccc(F)cc2)n(C)c1=O | inconclusive: 18.4 µM [falling, single point] |  | 

Row | Compound | Potency | lipid storage change, negative = inhibition | outcome
53 | Cn1c(C(C#N)C2=C(Cl)C(=O)N(c3ccccc3)C2=O)nc2ccccc21 (configuration not stated) | inconclusive: 29.1 µM [falling, single point] |  | 
54 | Cc1ccc(NC(=O)CSc2nnc(CNC(=O)c3ccccc3F)o2)cc1Cl | inconclusive: 29.1 µM [falling, single point] |  | 
55 | Clc1ccc(OCCN2CCCCC2)cc1Cl | inconclusive: 2.06 µM [falling, partial curve] |  | 
56 | COC(=O)CSc1nc2sccc2c(=O)n1-c1ccccc1 |  | inconclusive: 3.85% | 
57 | COc1ccc(NC2(c3ccc(Cl)cc3)C(=O)c3ccccc3C2=O)cc1 |  | inconclusive: -12.5% | 
58 | COc1ccc(/C=C/C(=O)OCC(=O)NCc2ccco2)c(OC)c1 |  | inconclusive: 9.25% | 
59 | O=c1[nH]c2ccc(S(=O)(=O)N3CCN(c4ccccc4)CC3)cc2[nH]c1=O |  | inconclusive: -12% | 
60 | C#CCOc1ccc2c3c(c(=O)oc2c1)CCCC3 | inconclusive: 0.291 µM [activator, partial curve] |  | 
61 | OC(CN1CCc2ccccc2C1)c1ccccc1 (configuration not stated) | inconclusive: 0.0046 µM [cytotoxic, full curve, poor fit] |  | 
62 | COc1ccc(-c2csc3ncnc(N4CCN(S(=O)(=O)c5ccc(C)cc5)CC4)c23)cc1 |  | inconclusive | 
63 | Cc1cc(C)n(Cc2cccc(F)c2)c(=O)c1C#N |  | inconclusive: 0.0801% | 
64 | Cc1nnc(SCC(=O)Nc2c(Cl)cccc2Cl)[nH]c1=O |  | inconclusive: 35.9% | 
65 | Cc1cc(C)nc(SCC(=O)N/N=C/c2cc(C)n(-c3ccccc3C)c2C)n1 |  | inconclusive: 29.6% | 
66 | COc1cc(C(=O)N2CCN(S(=O)(=O)c3ccc(C)cc3C)CC2)ccc1OCC(=O)N1CCOCC1 |  | inconclusive: 14.1% | 
67 | C[n+]1cn(/N=C/c2ccccc2)c2ccccc21 | inconclusive: 1.84 µM [falling, partial curve, poor fit] |  | 
68 | Cc1cc(OCC(=O)Nc2ccc(S(=O)(=O)N3CCN(C)CC3)cc2)ccc1Cl |  | inconclusive: -83.7% | 
69 | O=c1cc(CO)oc(CN2CCN(Cc3ccccc3)CC2)c1O | inconclusive: 29.1 µM [activator, single point] |  | 
70 | CN(C)c1ccc(C(=O)Nc2ccc(CN3CCS(=O)(=O)CC3)cc2)cc1 |  | inconclusive: 16.4% | 
71 | CS(=O)(=O)Nc1ccc(S(=O)(=O)NCCc2ccccc2)cc1 |  |  | inactive [at 46.1 µM]
72 | O=[N+]([O-])c1ccccc1S(=O)(=O)N1CCN(Cc2ccccc2)CC1 | inconclusive: 29.1 µM [falling, single point] |  | 
73 | O=C(O)CCc1ccc(-c2ccc(Cl)cc2)n1CC(=O)O |  | inconclusive: -10.1% | 
74 | CCC(=O)Nc1cccc(NC(=O)CSc2nnnn2C)c1 |  | inconclusive: 12.6% | 
75 | CCOC(=O)/C(N=Nc1ccc(C(=O)O)cc1[N+](=O)[O-])=C(\C)O |  | inconclusive: 17.8% | 
76 | O=C(COc1cccc(NC(=O)c2cccs2)c1)c1ccc(F)cc1 |  | inconclusive: 29.5% | 
77 | COc1ccc(S(=O)(=O)Nc2ccccc2OC)cc1NC(=O)CC1CC2CCC1C2 (configuration not stated) | inconclusive: 0.731 µM [activator, single point] |  | 
